Measurements taken from patent EP3470428A1.
No constants are given. Whether binding was seen depends on the method and setting. Some binding calls cover weakened binding; strength is not graded here.

By UniProt entry, the sequences of proteins in these tests, tags left out. Where a name states a change or a piece, a line headed by the entry shows the natural chain unless it says otherwise. Residues count along the entry.
UniProt Q07011: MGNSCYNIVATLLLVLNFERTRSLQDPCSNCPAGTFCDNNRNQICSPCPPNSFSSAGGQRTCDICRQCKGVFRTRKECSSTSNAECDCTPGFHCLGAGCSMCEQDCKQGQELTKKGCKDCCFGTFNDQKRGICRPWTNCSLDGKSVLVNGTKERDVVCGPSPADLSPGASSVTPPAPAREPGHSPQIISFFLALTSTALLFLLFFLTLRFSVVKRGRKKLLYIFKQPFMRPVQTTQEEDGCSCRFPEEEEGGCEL
UniProt P41273, residues 50-254: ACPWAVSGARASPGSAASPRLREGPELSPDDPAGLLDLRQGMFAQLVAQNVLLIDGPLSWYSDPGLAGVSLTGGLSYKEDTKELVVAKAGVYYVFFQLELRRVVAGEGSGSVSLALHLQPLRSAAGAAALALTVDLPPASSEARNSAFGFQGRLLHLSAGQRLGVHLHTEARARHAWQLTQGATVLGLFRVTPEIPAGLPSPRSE

Target: human CD137 extracellular domain (Peprotech, cat. 310-15-1MG) (human) (UniProt Q07011)
Experiment: flow cytometry; binder captured on protein G beads, R-PE labeled CD137 ECD

In the case of “CD137L ECD fused to the Fc part of a human IgG1 (from UniProt P41273 50-254) (Fc fusion)”, the binding is reported as “binds”.
